# Measured values published in the supplement of paper PMC8728848.
# Some of the results follow.
# Tests used:
# Test in all cases: glycan array binding signal (z-score within array); higher = stronger binding
# Details in all cases: glycan notation: IUPAC condensed, linker removed
# Fuc(a1-2)Gal = target: Fuc(a1-2)Gal
# Procedure, shortened: (§1)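 Arrays were curated from the Consortium for Functional Glycomics database, 3228 in total, and kept only where the protein sequence was available. Binding is expressed as a within-array Z-score. This score was averaged across arrays of the same protein sequence at different concentrations or buffers and across linkers, and negative values can be read as non-binding.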
# Fuc(a1-2)Gal(b1-3)GalNAc = target: Fuc(a1-2)Gal(b1-3)GalNAc
# Procedure, shortened: as §1
# [1] = target: Fuc(a1-2)Gal(b1-3)GalNAc(a1-3)[Fuc(a1-2)]Gal(b1-4)Glc
# Procedure, shortened: as §1
# [2] = target: Fuc(a1-2)Gal(b1-3)GalNAc(a1-3)[Fuc(a1-2)]Gal(b1-4)GlcNAc
# Procedure, shortened: as §1
# [3] = target: Fuc(a1-2)Gal(b1-3)GalNAc(b1-3)Gal
# Procedure, shortened: as §1
# [4] = target: Fuc(a1-2)Gal(b1-3)GalNAc(b1-3)Gal(a1-4)Gal(b1-4)Glc
# Procedure, shortened: as §1
# [5] = target: Fuc(a1-2)Gal(b1-3)GalNAc(b1-4)[Neu5Ac(a2-3)]Gal(b1-4)Glc
# Procedure, shortened: as §1
# Fuc(a1-2)Gal(b1-3)GlcNAc = target: Fuc(a1-2)Gal(b1-3)GlcNAc
# Procedure, shortened: as §1
# [6] = target: Fuc(a1-2)Gal(b1-3)GlcNAc(b1-2)Man(a1-3)[Fuc(a1-2)Gal(b1-3)GlcNAc(b1-2)Man(a1-6)]Man(b1-4)GlcNAc(b1-4)GlcNAc
# Procedure, shortened: as §1
# [7] = target: Fuc(a1-2)Gal(b1-3)GlcNAc(b1-3)Gal(b1-4)Glc
# Procedure, shortened: as §1
# [8] = target: Fuc(a1-2)Gal(b1-3)GlcNAc(b1-3)[Fuc(a1-3)[Gal(b1-4)]GlcNAc(b1-6)]Gal(b1-4)Glc
# Procedure, shortened: as §1
# [9] = target: Fuc(a1-2)Gal(b1-3)[Fuc(a1-4)]GlcNAc
# Procedure, shortened: as §1
# [10] = target: Fuc(a1-2)Gal(b1-3)[Fuc(a1-4)]GlcNAc(b1-2)Man(a1-3)[Fuc(a1-2)Gal(b1-3)[Fuc(a1-4)]GlcNAc(b1-2)Man(a1-6)]Man(b1-4)GlcNAc(b1-4)GlcNAc
# Procedure, shortened: as §1
# [11] = target: Fuc(a1-2)Gal(b1-3)[Fuc(a1-4)]GlcNAc(b1-3)[Fuc(a1-3)[Gal(b1-4)]GlcNAc(b1-6)]Gal(b1-4)Glc
# Procedure, shortened: as §1
# [12] = target: Fuc(a1-2)Gal(b1-3)[Fuc(a1-4)]GlcNAc(b1-3)[Gal(b1-4)GlcNAc(b1-6)]Gal(b1-4)Glc
# Procedure, shortened: as §1
# Fuc(a1-2)Gal(b1-4)Glc = target: Fuc(a1-2)Gal(b1-4)Glc
# Procedure, shortened: as §1
# Fuc(a1-2)Gal(b1-4)Glc6S = target: Fuc(a1-2)Gal(b1-4)Glc6S
# Procedure, shortened: as §1
# Fuc(a1-2)Gal(b1-4)GlcNAc = target: Fuc(a1-2)Gal(b1-4)GlcNAc
# Procedure, shortened: as §1
# [13] = target: Fuc(a1-2)Gal(b1-4)GlcNAc(b1-2)Man(a1-3)[Fuc(a1-2)Gal(b1-4)GlcNAc(b1-2)Man(a1-6)]Man(b1-4)GlcNAc(b1-4)GlcNAc
# Procedure, shortened: as §1
# [14] = target: Fuc(a1-2)Gal(b1-4)GlcNAc(b1-3)Gal(b1-4)GlcNAc
# Procedure, shortened: as §1
# [15] = target: Fuc(a1-2)Gal(b1-4)GlcNAc(b1-3)Gal(b1-4)GlcNAc(b1-3)Gal(b1-4)GlcNAc
# Procedure, shortened: as §1
# [16] = target: Fuc(a1-2)Gal(b1-4)GlcNAc(b1-3)GalNAc
# Procedure, shortened: as §1
# [17] = target: Fuc(a1-2)Gal(b1-4)GlcNAc6S
# Procedure, shortened: as §1
# [18] = target: Fuc(a1-2)Gal(b1-4)[Fuc(a1-3)]GlcNAc
# Procedure, shortened: as §1
# [19] = target: Fuc(a1-2)Gal(b1-4)[Fuc(a1-3)]GlcNAc(b1-2)Man(a1-3)[Fuc(a1-2)Gal(b1-4)[Fuc(a1-3)]GlcNAc(b1-2)Man(a1-6)]Man(b1-4)GlcNAc(b1-4)GlcNAc
# Procedure, shortened: as §1
# [20] = target: Fuc(a1-2)Gal(b1-4)[Fuc(a1-3)]GlcNAc(b1-3)Gal(b1-4)[Fuc(a1-3)]GlcNAc
# Procedure, shortened: as §1
# [21] = target: Fuc(a1-2)Gal(b1-4)[Fuc(a1-3)]GlcNAc(b1-3)Gal(b1-4)[Fuc(a1-3)]GlcNAc(b1-3)Gal(b1-4)[Fuc(a1-3)]GlcNAc
# Procedure, shortened: as §1
# Fuc(a1-2)Gal6S(b1-4)Glc = target: Fuc(a1-2)Gal6S(b1-4)Glc
# Procedure, shortened: as §1
# [22] = target: Fuc(a1-2)Gal6S(b1-4)Glc6S
# Procedure, shortened: as §1
# [23] = target: Fuc(a1-2)Gal6S(b1-4)GlcNAc
# Procedure, shortened: as §1
binder,measurement,setting,value
"CLEC9a (Mus musculus), Q8BRU4 (protein) MHAEEIYTSLQWDIPTSEASQKCQSPSKCSGAWCVVTMISCVVCMGLLATSIFLGIKFFQVSSLVLEQQERLIQQDTALVNLTQWQRKYTLEYCQALLQRSLHSGSDCSPCPHNWIQNGKSCYYVFERWEMWNISKKSCLKEGASLFQIDSKEEMEFISSIGKLKGGNKYWVGVFQDGISGSWFWEDGSSPLSDLLPAERQRSAGQICGYLKDSTLISDKCDSWKYFICEKKAFGSCI",glycan array binding signal (z-score),Fuc(a1-2)Gal,-0.206
same,glycan array binding signal (z-score),Fuc(a1-2)Gal(b1-3)GalNAc,0.078
same,glycan array binding signal (z-score),[1],0.532
same,glycan array binding signal (z-score),[2],0.439
same,glycan array binding signal (z-score),[3],0.494
same,glycan array binding signal (z-score),[4],-1.01
same,glycan array binding signal (z-score),[5],0.535
same,glycan array binding signal (z-score),Fuc(a1-2)Gal(b1-3)GlcNAc,0.506
same,glycan array binding signal (z-score),[6],-0.158
same,glycan array binding signal (z-score),[7],0.895
same,glycan array binding signal (z-score),[8],-0.348
same,glycan array binding signal (z-score),[9],0.259
same,glycan array binding signal (z-score),[10],0.513
same,glycan array binding signal (z-score),[11],0.055
same,glycan array binding signal (z-score),[12],-0.641
same,glycan array binding signal (z-score),Fuc(a1-2)Gal(b1-4)Glc,1.19
same,glycan array binding signal (z-score),Fuc(a1-2)Gal(b1-4)Glc6S,0.626
same,glycan array binding signal (z-score),Fuc(a1-2)Gal(b1-4)GlcNAc,-0.52
same,glycan array binding signal (z-score),[13],-0.509
same,glycan array binding signal (z-score),[14],-0.267
same,glycan array binding signal (z-score),[15],-0.027
same,glycan array binding signal (z-score),[16],1.67
same,glycan array binding signal (z-score),[17],1.36
same,glycan array binding signal (z-score),[18],0.439
same,glycan array binding signal (z-score),[19],2.21
same,glycan array binding signal (z-score),[20],-0.11
same,glycan array binding signal (z-score),[21],0.048
same,glycan array binding signal (z-score),Fuc(a1-2)Gal6S(b1-4)Glc,0.249
same,glycan array binding signal (z-score),[22],-0.572
same,glycan array binding signal (z-score),[23],0.366

# Part of the list above, set out differently.
binder	measurement	setting	value
CLEC9a (Mus musculus), Q8BRU4 (protein) MHAEEIYTSLQWDIPTSEASQKCQSPSKCSGAWCVVTMISCVVCMGLLATSIFLGIKFFQVSSLVLEQQERLIQQDTALVNLTQWQRKYTLEYCQALLQRSLHSGSDCSPCPHNWIQNGKSCYYVFERWEMWNISKKSCLKEGASLFQIDSKEEMEFISSIGKLKGGNKYWVGVFQDGISGSWFWEDGSSPLSDLLPAERQRSAGQICGYLKDSTLISDKCDSWKYFICEKKAFGSCI	glycan array binding signal (z-score)	Fuc(a1-2)Gal(b1-4)GlcNAc	-0.52
same	glycan array binding signal (z-score)	[13]	-0.509
